Reference: the supplement of paper PMC8728848
The other results are listed elsewhere or left out.

Experiments:
Assay in all cases: glycan array binding signal (z-score within array); higher = stronger binding
Details in all cases: glycan notation: IUPAC condensed, linker removed
[1] = target: Neu5Ac(a2-3)Gal(b1-4)GlcNAc(b1-3)[Neu5Ac(a2-3)Gal(b1-4)GlcNAc(b1-6)]GalNAc
Outline: (§1)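 Negative Z-scores can be read as non-binding. The Z-score is calculated within each array and then averaged across arrays of one protein sequence at different concentrations or buffers and across linkers. Arrays, 3228 in all, were curated from the Consortium for Functional Glycomics database and kept only where the protein sequence was available.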

[2] = target: Neu5Ac(a2-3)Gal(b1-4)GlcNAc(b1-6)GalNAc
Outline: as §1

[3] = target: Neu5Ac(a2-3)Gal(b1-4)GlcNAc(b1-6)[Gal(b1-3)]GalNAc
Outline: as §1

[4] = target: Neu5Ac(a2-3)Gal(b1-4)GlcNAc(b1-6)[Neu5Ac(a2-3)Gal(b1-3)]GalNAc
Outline: as §1

[5] = target: Neu5Ac(a2-3)Gal(b1-4)GlcNAc6S
Outline: as §1

[6] = target: Neu5Ac(a2-3)Gal(b1-4)[Fuc(a1-3)]GlcNAc
Outline: as §1

[7] = target: Neu5Ac(a2-3)Gal(b1-4)[Fuc(a1-3)]GlcNAc(b1-2)Man
Outline: as §1

[8] = target: Neu5Ac(a2-3)Gal(b1-4)[Fuc(a1-3)]GlcNAc(b1-3)Gal
Outline: as §1

[9] = target: Neu5Ac(a2-3)Gal(b1-4)[Fuc(a1-3)]GlcNAc(b1-3)Gal(b1-4)GlcNAc
Outline: as §1

[10] = target: Neu5Ac(a2-3)Gal(b1-4)[Fuc(a1-3)]GlcNAc(b1-3)Gal(b1-4)[Fuc(a1-3)]GlcNAc(b1-3)Gal(b1-4)[Fuc(a1-3)]GlcNAc
Outline: as §1

[11] = target: Neu5Ac(a2-3)Gal(b1-4)[Fuc(a1-3)]GlcNAc(b1-3)GalNAc
Outline: as §1

[12] = target: Neu5Ac(a2-3)Gal(b1-4)[Fuc(a1-3)]GlcNAc(b1-6)[Gal(b1-3)]GalNAc
Outline: as §1

[13] = target: Neu5Ac(a2-3)Gal(b1-4)[Fuc(a1-3)]GlcNAc(b1-6)[Neu5Ac(a2-3)Gal(b1-3)]GalNAc
Outline: as §1

[14] = target: Neu5Ac(a2-3)Gal(b1-4)[Fuc(a1-3)]GlcNAc6S
Outline: as §1

[15] = target: Neu5Ac(a2-3)Gal6S(b1-4)GlcNAc
Outline: as §1

[16] = target: Neu5Ac(a2-3)Gal6S(b1-4)[Fuc(a1-3)]GlcNAc
Outline: as §1

[17] = target: Neu5Ac(a2-3)GalNAc
Outline: as §1

[18] = target: Neu5Ac(a2-3)GalNAc(b1-4)GlcNAc
Outline: as §1

[19] = target: Neu5Ac(a2-3)[GalNAc(b1-4)]Gal(b1-4)Glc
Outline: as §1

[20] = target: Neu5Ac(a2-3)[GalNAc(b1-4)]Gal(b1-4)GlcNAc
Outline: as §1

[21] = target: Neu5Ac(a2-3)[GalNAc(b1-4)]Gal(b1-4)GlcNAc(b1-3)GalNAc
Outline: as §1

[22] = target: Neu5Ac(a2-3)[Neu5Ac(a2-6)]GalNAc
Outline: as §1

[23] = target: Neu5Ac(a2-6)Gal
Outline: as §1

[24] = target: Neu5Ac(a2-6)Gal(b1-3)GlcNAc(b1-3)[Gal(b1-4)GlcNAc(b1-6)]Gal(b1-4)Glc
Outline: as §1

[25] = target: Neu5Ac(a2-6)Gal(b1-4)Glc
Outline: as §1

[26] = target: Neu5Ac(a2-6)Gal(b1-4)GlcNAc
Outline: as §1

[27] = target: Neu5Ac(a2-6)Gal(b1-4)GlcNAc(b1-2)Man
Outline: as §1

[28] = target: Neu5Ac(a2-6)Gal(b1-4)GlcNAc(b1-2)Man(a1-3)Man(b1-4)GlcNAc(b1-4)GlcNAc
Outline: as §1

[29] = target: Neu5Ac(a2-6)Gal(b1-4)GlcNAc(b1-2)Man(a1-3)[Gal(b1-4)GlcNAc(b1-2)Man(a1-6)]Man(b1-4)GlcNAc(b1-4)GlcNAc
Outline: as §1

[30] = target: Neu5Ac(a2-6)Gal(b1-4)GlcNAc(b1-2)Man(a1-3)[GlcNAc(b1-2)Man(a1-6)]Man(b1-4)GlcNAc(b1-4)GlcNAc
Outline: as §1

[31] = target: Neu5Ac(a2-6)Gal(b1-4)GlcNAc(b1-2)Man(a1-3)[GlcNAc(b1-4)][Neu5Ac(a2-6)Gal(b1-4)GlcNAc(b1-2)Man(a1-6)]Man(b1-4)GlcNAc(b1-4)GlcNAc
Outline: as §1

[32] = target: Neu5Ac(a2-6)Gal(b1-4)GlcNAc(b1-2)Man(a1-3)[Man(a1-6)]Man(b1-4)GlcNAc(b1-4)GlcNAc
Outline: as §1

[33] = target: Neu5Ac(a2-6)Gal(b1-4)GlcNAc(b1-2)Man(a1-3)[Neu5Ac(a2-3)Gal(b1-4)GlcNAc(b1-2)Man(a1-6)]Man(b1-4)GlcNAc(b1-4)GlcNAc
Outline: as §1

[34] = target: Neu5Ac(a2-6)Gal(b1-4)GlcNAc(b1-2)Man(a1-3)[Neu5Ac(a2-6)Gal(b1-4)GlcNAc(b1-2)Man(a1-6)]Man(b1-4)GlcNAc(b1-4)GlcNAc
Outline: as §1

[35] = target: Neu5Ac(a2-6)Gal(b1-4)GlcNAc(b1-2)Man(a1-3)[Neu5Ac(a2-6)Gal(b1-4)GlcNAc(b1-2)Man(a1-6)]Man(b1-4)GlcNAc(b1-4)[Fuc(a1-6)]GlcNAc
Outline: as §1

[36] = target: Neu5Ac(a2-6)Gal(b1-4)GlcNAc(b1-2)Man(a1-6)Man(b1-4)GlcNAc(b1-4)GlcNAc
Outline: as §1

[37] = target: Neu5Ac(a2-6)Gal(b1-4)GlcNAc(b1-2)Man(a1-6)[Gal(b1-4)GlcNAc(b1-2)Man(a1-3)]Man(b1-4)GlcNAc(b1-4)GlcNAc
Outline: as §1

[38] = target: Neu5Ac(a2-6)Gal(b1-4)GlcNAc(b1-2)Man(a1-6)[GlcNAc(b1-2)Man(a1-3)]Man(b1-4)GlcNAc(b1-4)GlcNAc
Outline: as §1

[39] = target: Neu5Ac(a2-6)Gal(b1-4)GlcNAc(b1-2)Man(a1-6)[Man(a1-3)]Man(b1-4)GlcNAc(b1-4)GlcNAc
Outline: as §1

[40] = target: Neu5Ac(a2-6)Gal(b1-4)GlcNAc(b1-2)[Neu5Ac(a2-6)Gal(b1-4)GlcNAc(b1-4)]Man(a1-3)[GlcNAc(b1-4)][Neu5Ac(a2-6)Gal(b1-4)GlcNAc(b1-2)[Neu5Ac(a2-6)Gal(b1-4)GlcNAc(b1-6)]Man(a1-6)]Man(b1-4)GlcNAc(b1-4)GlcNAc
Outline: as §1

[41] = target: Neu5Ac(a2-6)Gal(b1-4)GlcNAc(b1-2)[Neu5Ac(a2-6)Gal(b1-4)GlcNAc(b1-4)]Man(a1-3)[GlcNAc(b1-4)][Neu5Ac(a2-6)Gal(b1-4)GlcNAc(b1-4)Man(a1-6)]Man(b1-4)GlcNAc(b1-4)GlcNAc
Outline: as §1

[42] = target: Neu5Ac(a2-6)Gal(b1-4)GlcNAc(b1-2)[Neu5Ac(a2-6)Gal(b1-4)GlcNAc(b1-6)]Man(a1-6)[Neu5Ac(a2-6)Gal(b1-4)GlcNAc(b1-2)Man(a1-3)][GlcNAc(b1-4)]Man(b1-4)GlcNAc(b1-4)GlcNAc
Outline: as §1

[43] = target: Neu5Ac(a2-6)Gal(b1-4)GlcNAc(b1-3)Gal(b1-3)GlcNAc
Outline: as §1

[44] = target: Neu5Ac(a2-6)Gal(b1-4)GlcNAc(b1-3)Gal(b1-4)GlcNAc
Outline: as §1

[45] = target: Neu5Ac(a2-6)Gal(b1-4)GlcNAc(b1-3)Gal(b1-4)GlcNAc(b1-2)Man(a1-3)[Neu5Ac(a2-6)Gal(b1-4)GlcNAc(b1-3)Gal(b1-4)GlcNAc(b1-2)Man(a1-6)]GalNAc
Outline: as §1

[46] = target: Neu5Ac(a2-6)Gal(b1-4)GlcNAc(b1-3)Gal(b1-4)GlcNAc(b1-3)Gal(b1-4)GlcNAc
Outline: as §1

B1: Erv41-EDTA (Saccharomyces cerevisiae), Q04651 (protein)
chain: MKFLVNVALVFMVVYISYIYAAAPEHHHHHHDYDIPTTENLYFQGAMGYIDQQYVVDSQVRDTVQINMDIYVNTKCDWLQINVRDQTMDRKLVLEELQLEEMPFFIPYDTKVNDINEIITPELDEILGEAIPAEFREKLDTRSFFDESDPNKAHLPEFNGCHVFGSIPVNRVSGELQITAKSLGYVASRKAPLEELKFNHVINEFSFGDFYPYIDNPLDNTAQFNQDEPLTTYVYYTSVVPTLFKKLGAEVDTNQYSVNDYRYLYKDVAAKGDKMPGIFFKYNFEPLSIVVSDVRL
In the case of B1, the “glycan array binding signal (z-score)” value [1] is reported as 0.548, the “glycan array binding signal (z-score)” value [2] is reported as -0.767 and the “glycan array binding signal (z-score)” value [3] is reported as -0.279. For the same binder, the “glycan array binding signal (z-score)” value [4] was -0.083, the “glycan array binding signal (z-score)” value [5] was -0.522 and the “glycan array binding signal (z-score)” value [6] was 0.162. For the same binder, the “glycan array binding signal (z-score)” value [7] was -0.111, the “glycan array binding signal (z-score)” value [8] was -0.263 and the “glycan array binding signal (z-score)” value [9] was 1.15. The “glycan array binding signal (z-score)” value [10] was 0.405, the “glycan array binding signal (z-score)” value [11] was 1.5 and the “glycan array binding signal (z-score)” value [12] was 0.537. For the same binder, the “glycan array binding signal (z-score)” value [13] was 0.921, the “glycan array binding signal (z-score)” value [14] was -0.457 and the “glycan array binding signal (z-score)” value [15] was 0.025. The “glycan array binding signal (z-score)” value [16] was 0.312, the “glycan array binding signal (z-score)” value [17] was -0.308 and the “glycan array binding signal (z-score)” value [18] was -0.286. For the same binder, the “glycan array binding signal (z-score)” value [19] was -1, the “glycan array binding signal (z-score)” value [20] was -0.799 and the “glycan array binding signal (z-score)” value [21] was 0.196. The “glycan array binding signal (z-score)” value [22] was -0.909, the “glycan array binding signal (z-score)” value [23] was -0.071 and the “glycan array binding signal (z-score)” value [24] was -0.18. For the same binder, the “glycan array binding signal (z-score)” value [25] was 0.512, the “glycan array binding signal (z-score)” value [26] was 0.171 and the “glycan array binding signal (z-score)” value [27] was -0.02. For the same binder, the “glycan array binding signal (z-score)” value [28] was 1.97, the “glycan array binding signal (z-score)” value [29] was 0.363 and the “glycan array binding signal (z-score)” value [30] was -0.231. The “glycan array binding signal (z-score)” value [31] was -0.03, the “glycan array binding signal (z-score)” value [32] was -0.022 and the “glycan array binding signal (z-score)” value [33] was -0.568. The “glycan array binding signal (z-score)” value [34] was 0.63, the “glycan array binding signal (z-score)” value [35] was 1.27 and the “glycan array binding signal (z-score)” value [36] was 0.291. For the same binder, the “glycan array binding signal (z-score)” value [37] was 1.31, the “glycan array binding signal (z-score)” value [38] was -0.992 and the “glycan array binding signal (z-score)” value [39] was -0.283. For the same binder, the “glycan array binding signal (z-score)” value [40] was -0.852, the “glycan array binding signal (z-score)” value [41] was -0.319 and the “glycan array binding signal (z-score)” value [42] was 0.237. The “glycan array binding signal (z-score)” value [43] was 0.875, the “glycan array binding signal (z-score)” value [44] was -0.708 and the “glycan array binding signal (z-score)” value [45] was -0.499. For the same binder, the “glycan array binding signal (z-score)” value [46] was 0.013.
